Assay results published in US7022343B2, “Controlled release of anti-arrhythmic agents” (Genzyme Corporation, priority 2000, dated 2006).
Structures can show the parent of a compound that is named as a salt.

Conditions: FIG. 2A (CORDARONE 0-20%) / FIG. 2B (particulate amiodarone 0-10%)

## CCCCc1oc2ccccc2c1C(=O)c1cc(I)c(OCCN(CC)CC)c(I)c1 [amiodarone, Amiodarone hydrochloride]
  loading level in FOCALSEAL-L formulation that maintains acceptable pH and modulus values: about 1.5%
